For this experiment, the target named is T1, GFP-HSBP1 (heat shock factor binding protein 1 fused to EGFP) (UniProt O75506).
T1 sequence: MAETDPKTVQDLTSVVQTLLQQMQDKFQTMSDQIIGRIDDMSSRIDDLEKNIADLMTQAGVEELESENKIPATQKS
In words: co-IP; GFP-trap beads on lysates of U2OS cells stably or transiently expressing GFP-HSBP1; beads with lysate 2 h at 4°C; lysis buffer 20 mM Tris-HCl pH 7.4, 150 mM NaCl, 2 mM MgCl2, 5 mM DTT, 0.5% Tween; wash with 250 mM NaCl; western blot; cells untreated, with control siRNA or siULK1, in EBSS for 2 h or infected with EMCV for 6 h.

By UniProt entry, the sequences of proteins in these tests, tags left out.
UniProt Q8TDY2: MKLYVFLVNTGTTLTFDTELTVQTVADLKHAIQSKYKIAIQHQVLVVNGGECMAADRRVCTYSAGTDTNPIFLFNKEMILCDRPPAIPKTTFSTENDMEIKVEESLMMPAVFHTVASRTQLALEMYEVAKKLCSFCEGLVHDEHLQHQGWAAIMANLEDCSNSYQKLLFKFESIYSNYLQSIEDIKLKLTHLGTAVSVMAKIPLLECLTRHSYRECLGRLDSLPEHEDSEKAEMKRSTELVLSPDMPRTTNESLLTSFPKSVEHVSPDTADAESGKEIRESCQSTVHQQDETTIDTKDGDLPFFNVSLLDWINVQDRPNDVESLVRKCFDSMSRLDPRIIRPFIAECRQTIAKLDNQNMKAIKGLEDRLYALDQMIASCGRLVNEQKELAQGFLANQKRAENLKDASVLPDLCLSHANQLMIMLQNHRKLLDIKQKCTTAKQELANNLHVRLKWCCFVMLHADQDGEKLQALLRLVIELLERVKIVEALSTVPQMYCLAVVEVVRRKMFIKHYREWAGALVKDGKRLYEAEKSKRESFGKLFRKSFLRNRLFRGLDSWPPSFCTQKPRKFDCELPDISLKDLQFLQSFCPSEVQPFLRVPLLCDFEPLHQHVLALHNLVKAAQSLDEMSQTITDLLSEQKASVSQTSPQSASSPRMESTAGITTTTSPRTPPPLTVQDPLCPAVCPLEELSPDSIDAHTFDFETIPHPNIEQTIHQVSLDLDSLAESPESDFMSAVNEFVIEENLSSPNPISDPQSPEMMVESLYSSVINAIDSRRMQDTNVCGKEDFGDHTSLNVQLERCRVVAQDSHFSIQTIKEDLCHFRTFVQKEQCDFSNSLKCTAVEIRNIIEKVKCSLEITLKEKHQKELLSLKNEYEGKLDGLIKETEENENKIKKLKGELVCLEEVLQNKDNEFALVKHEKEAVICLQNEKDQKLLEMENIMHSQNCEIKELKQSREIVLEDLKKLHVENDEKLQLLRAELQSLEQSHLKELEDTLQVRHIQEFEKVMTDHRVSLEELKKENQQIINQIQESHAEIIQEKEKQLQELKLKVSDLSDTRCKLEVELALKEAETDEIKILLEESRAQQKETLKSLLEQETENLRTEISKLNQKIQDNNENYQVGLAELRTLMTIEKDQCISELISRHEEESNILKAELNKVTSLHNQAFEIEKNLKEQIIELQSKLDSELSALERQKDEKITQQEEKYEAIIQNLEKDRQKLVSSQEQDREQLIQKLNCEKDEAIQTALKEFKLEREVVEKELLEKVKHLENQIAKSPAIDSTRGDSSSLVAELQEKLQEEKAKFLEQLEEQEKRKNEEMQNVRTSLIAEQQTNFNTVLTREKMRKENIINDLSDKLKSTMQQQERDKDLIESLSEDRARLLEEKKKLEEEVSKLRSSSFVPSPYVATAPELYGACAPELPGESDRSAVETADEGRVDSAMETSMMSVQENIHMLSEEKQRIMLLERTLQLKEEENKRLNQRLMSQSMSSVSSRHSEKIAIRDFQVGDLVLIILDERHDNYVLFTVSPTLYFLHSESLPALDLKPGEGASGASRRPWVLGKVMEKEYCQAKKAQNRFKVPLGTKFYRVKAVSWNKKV

No constants are given. Whether binding was seen depends on the method and setting. In cells and extracts the contact can be indirect. Some entries that bind do so weakly or less than the wild type. Where a sequence is shown, tags or fusion partners need not be part of it.

As for “RB1 inducible coiled-coil 1 (FIP200/RB1CC1) (from UniProt Q8TDY2 1-1594)”, the binding result was “binds”.

The record behind these values is paper PMC8634480.
